Among the data in US20070197431A1 (published 2007) are binding values, retold here.

Amino acid sequences for entries named in this document (tags omitted). Residues count along the entry.
UniProt Q15303, residues 26-1308: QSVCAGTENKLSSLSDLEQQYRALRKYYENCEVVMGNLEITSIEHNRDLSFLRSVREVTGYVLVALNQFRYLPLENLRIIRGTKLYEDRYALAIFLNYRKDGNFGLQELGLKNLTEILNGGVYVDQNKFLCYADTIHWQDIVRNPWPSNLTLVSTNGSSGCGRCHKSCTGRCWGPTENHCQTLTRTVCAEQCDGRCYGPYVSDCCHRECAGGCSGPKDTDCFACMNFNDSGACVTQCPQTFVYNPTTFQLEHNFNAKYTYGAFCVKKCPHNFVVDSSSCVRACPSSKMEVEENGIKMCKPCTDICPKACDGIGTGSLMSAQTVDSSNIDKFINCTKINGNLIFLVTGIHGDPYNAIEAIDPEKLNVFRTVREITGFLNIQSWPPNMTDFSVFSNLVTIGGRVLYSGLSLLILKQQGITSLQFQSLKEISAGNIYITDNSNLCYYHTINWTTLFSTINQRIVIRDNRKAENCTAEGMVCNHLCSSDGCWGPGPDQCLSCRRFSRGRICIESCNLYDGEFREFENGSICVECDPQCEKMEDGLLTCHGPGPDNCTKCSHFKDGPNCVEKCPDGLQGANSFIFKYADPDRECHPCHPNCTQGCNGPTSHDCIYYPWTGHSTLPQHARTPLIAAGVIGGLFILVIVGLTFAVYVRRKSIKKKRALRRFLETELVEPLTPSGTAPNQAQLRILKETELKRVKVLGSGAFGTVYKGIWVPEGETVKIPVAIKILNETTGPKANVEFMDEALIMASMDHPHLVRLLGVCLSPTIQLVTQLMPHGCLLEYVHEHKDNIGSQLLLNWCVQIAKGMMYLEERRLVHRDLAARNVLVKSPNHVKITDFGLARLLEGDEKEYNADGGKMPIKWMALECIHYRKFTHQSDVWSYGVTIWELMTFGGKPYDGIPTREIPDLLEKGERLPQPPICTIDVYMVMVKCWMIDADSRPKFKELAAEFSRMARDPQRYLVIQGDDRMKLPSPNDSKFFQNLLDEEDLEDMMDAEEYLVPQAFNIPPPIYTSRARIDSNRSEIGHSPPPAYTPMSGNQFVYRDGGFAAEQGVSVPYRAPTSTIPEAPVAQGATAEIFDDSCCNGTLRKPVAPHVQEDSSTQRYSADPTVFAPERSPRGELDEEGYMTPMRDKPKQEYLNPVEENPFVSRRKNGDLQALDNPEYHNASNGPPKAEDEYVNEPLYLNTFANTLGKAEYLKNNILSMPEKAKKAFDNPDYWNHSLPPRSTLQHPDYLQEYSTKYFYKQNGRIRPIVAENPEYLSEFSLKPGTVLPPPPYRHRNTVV

Assay [1] deals with bovine ErbB3 (bovine) (UniProt A6QR62). Kind of assay: summary of the examples (co-immunoprecipitation and pull-down).
Assay [2] addresses human ErbB4 (human) (UniProt Q15303). The description is as above.
The target in assay [3] is bovine ErbB3 (bovine) (UniProt A6QR62). The experiment in a line: co-immunoprecipitation from co-infected Sf9 cells, anti-FLAG blot.
In assay [4] the target is human ErbB4 (human) (UniProt Q15303). Described as above.
Assay [5] addresses bovine ErbB3 (bovine) (UniProt A6QR62). Kind of assay: GST pull-down from Sf9 lysates, receptor blot.
Assay [6] has as its target human ErbB4 (human) (UniProt Q15303). The experiment in a line: GST pull-down from Sf9 lysates, receptor blot.
The target is the same in assay [7]. The experiment in a line: GST pull-down of ErbB4 expressed in Sf9 cells.
In assay [8] the target is T1, entire intracellular portion of bovine ErbB3 (residues W665 to I1335) in pAS1 bait plasmid (bovine) (UniProt A6QR62).
T1 sequence: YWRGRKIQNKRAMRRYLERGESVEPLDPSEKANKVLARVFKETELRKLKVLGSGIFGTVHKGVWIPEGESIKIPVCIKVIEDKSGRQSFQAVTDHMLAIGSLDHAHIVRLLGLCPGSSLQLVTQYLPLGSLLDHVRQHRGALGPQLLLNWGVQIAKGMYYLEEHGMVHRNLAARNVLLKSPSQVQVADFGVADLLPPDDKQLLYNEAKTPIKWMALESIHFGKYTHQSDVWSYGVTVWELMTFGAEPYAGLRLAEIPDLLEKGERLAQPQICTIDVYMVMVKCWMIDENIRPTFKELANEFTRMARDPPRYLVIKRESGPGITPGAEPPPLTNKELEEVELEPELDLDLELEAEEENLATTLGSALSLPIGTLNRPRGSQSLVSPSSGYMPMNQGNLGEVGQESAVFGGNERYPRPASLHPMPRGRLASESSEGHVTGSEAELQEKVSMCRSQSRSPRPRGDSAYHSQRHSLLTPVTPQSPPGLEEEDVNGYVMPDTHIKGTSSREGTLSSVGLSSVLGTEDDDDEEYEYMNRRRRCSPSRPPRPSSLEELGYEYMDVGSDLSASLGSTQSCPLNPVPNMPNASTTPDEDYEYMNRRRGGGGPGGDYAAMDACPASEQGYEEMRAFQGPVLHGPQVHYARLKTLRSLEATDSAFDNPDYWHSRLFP
The experiment in a line: yeast two-hybrid screen.

No constants are given. Whether binding was seen depends on the method and setting. For some assays here: Binding seen in cells or lysates may run through a third protein. Some binding calls cover weakened binding; strength is not graded here. Where a sequence is shown, tags or fusion partners need not be part of it.

B1: Nrdp1 tagged at its amino terminus with FLAG epitope (baculovirus, Sf9 insect cells) (other)
chain: DYKDDDDKMGYDVTRFQGDVDEDLICPICSGVLEEPVQAPHCEHAFCNACITQWFSQQQTCPVDRSVVTVAHLRPVPRIMRNMLSKLQIACDNAVFGCSAVVRLDNLMSHLSDCEHNPKRPVTCEQGCGLEMPKDELPNHNCIKHLRSVVQQQQTRIAELEKTSAEHKHQLAEQKRDIQLLKAYMRAIRSVNPNLQNLEETIEYNEILEWVNSLQPARVTRWGGMISTPDAVLQAVIKRSLVESGCPASIVNELIENAHERSWPQGLATLETRQMNRRYYENYVAKRIPGKQAVVVMACENQHMGDDMVQEPGLVMIFAHGVEEI
notes: Construct used for the Sf9 co-immunoprecipitations; also called FLAG-Nrdp1; neuregulin receptor degradation protein-1
Take B1: the binding entry in assay [1], in assay [2], in assay [3] and in assay [4] was “binds” throughout.

B2: GST fusion protein of clone 32 encompassing Nrdp1 residues I135 to I317 (other)
chain: IKHLRSVVQQQQTRIAELEKTSAEHKHQLAEQKRDIQLLKAYMRAIRSVNPNLQNLEETIEYNEILEWVNSLQPARVTRWGGMISTPDAVLQAVIKRSLVESGCPASIVNELIENAHERSWPQGLATLETRQMNRRYYENYVAKRIPGKQAVVVMACENQHMGDDMVQEPGLVMIFAHGVEEI
notes: Expressed in bacteria and immobilized on beads (3 ug) for the pull-downs; also called GST-32; GST fusion of clone 32; not shown: glutathione S-transferase encoded by the pGEX vector
For the molecule B2, the binding entry in assay [5], in assay [6] and in assay [7] was “binds” each time.

B3: clone 32-encoded polypeptide fused to the activation domain of GAL4 (yeast two-hybrid prey) (protein, not shown: large carriers)
chain: B2 chain
Take B3: the binding entry in assay [8] was “binds”.
